In all, about 410,000 compounds went through this assay and about 18,000 (4.4%) were called active. The inconclusive results got no clear call from the source; some entries with a clear call stand among them for comparison. No stated cut-off is given here; in the data, active means activity change below about -60%; inconclusive means no clear call, values can overlap the other calls; inactive means above about -39%.
test: qHTS Assay for inhibitors of the human cytomegalovirus (HCMV); settings: HFF cells, HCMV-luciferase reporter, 72 h; at 57.5 µM; stronger effect = lower value
Summary of the method: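 Two compound doses tested in HFFs infected with HCMV-luciferase, MOI 1 PFU/cell, 72 h at 37C. Lysate luminescence read with OneGlo; data normalized against buffer-only and 10uM Salinomycin inhibitor controls.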
On the % scale 0 is the no-effect control and ±100 the full control effect.

Compound | activity change, negative = inhibition
CC(C)(C)c1cc(=O)n2c(nc3ccccc32)[nH]1 | inconclusive: -43.1%
Cc1ccccc1CN1CCN(c2ncc(C(=O)Nc3cccc(C(F)(F)F)c3)s2)C1=O | inconclusive: -46.5%
Cc1ccsc1C(=O)NC1CCCCC1C (stereo not given) | inconclusive: -40.6%
O=C(NCCCn1ccnc1)c1ccc(N2CCCCCC2)c([N+](=O)[O-])c1 | active: -60.9%
CCN(CC1COc2ccccc2O1)C(=O)c1ccc(Cl)c(S(=O)(=O)N2CC(C)OC(C)C2)c1 (stereo not given) | inconclusive: -44.2%
CCCCNC(=O)c1nc2ccccc2nc1-c1ccc(F)c(F)c1 | inactive: 53.4%
Fc1ccc(OCc2nn3c(Cn4nnc5ccccc54)nnc3s2)cc1 | inactive: -1.96%
CN1CCCN(C(=O)/C=C/c2ccc(Cl)cc2Cl)CC1 | active: -61.8%
CCC(CC)C1=NN2C(=N)/C(=C\c3cc(C)n(-c4cccc(C)c4)c3C)C(=O)N=C2S1 | inconclusive: -51.2%
CCOC(=O)c1cc(-c2ccc(C)cc2)n(CCC(=O)Nc2nc3c(C)cccc3s2)c1C | inconclusive: -41.5%
CSc1nc(SC)c2c3c(oc2n1)COC(C)(C)C3 | inconclusive: -41.8%
Cc1cc(-n2c(SCC(=O)NCc3ccccc3)nc3ccsc3c2=O)ccc1Cl | inconclusive: -52.8%
Cc1ccc2c(c1)c(=O)c1ccccc1n2CCCC(=O)Nc1ccc(C)c(F)c1 | active: -73.5%
Cc1cc(OC(C)C(=O)NCCCn2ccnc2)c2c(C)c(C)c(=O)oc2c1 (stereo not given) | inactive: 38.7%
Nc1ncnc(N(c2ccccc2)C2CCCCC2)c1[N+](=O)[O-] | inconclusive: -41.8%
COc1ccc(C(=O)NNC(=O)c2ccncc2)cc1 | inactive: -26.6%
O=[N+]([O-])c1ccc(NCc2ccccn2)nc1 | inactive: 44.1%
Cc1ccc(Cn2c(SCCN3CCCCC3)nc3c2c(=O)[nH]c(=O)n3C)cc1 | inconclusive: -52.6%
CC(C)(C)c1ccc(C(=O)NCCOc2ccccc2)cc1 | inconclusive: -51.8%
Fc1cccc(C2NCc3ccccc3-n3cccc32)c1 (stereo not given) | inconclusive: -43.3%
COc1cccc(Cn2c(=O)n(CC3CCC(C(=O)N4CCCCC4)CC3)c(=O)c3sccc32)c1 (stereo not given) | inconclusive: -48.3%
Cc1c(NC(=O)OCCSc2nc(N(C)C)nc(N(C)C)n2)sc(=S)n1C | inconclusive: -50.7%

In the list so far, 2 have a tert-butyl group:
Compound | activity change, negative = inhibition
CC(C)(C)c1cc(=O)n2c(nc3ccccc32)[nH]1 | inconclusive: -43.1%
CC(C)(C)c1ccc(C(=O)NCCOc2ccccc2)cc1 | inconclusive: -51.8%

Next part:

Compound | activity change, negative = inhibition
Cc1csc2c(=O)sc(NC(=O)c3ccc(F)cc3)nc12 | inconclusive: -50.3%
COc1ccc(C(=O)NCc2nnc(SCC(=O)Nc3cc(Cl)ccc3OC)o2)cc1 | inactive: -29.3%
CCN(CC)CCn1c(NCc2ccc(OC)cc2)nc2ccccc21 | active: -100%
O=C(N=C1SC2CS(=O)(=O)CC2N1c1ccccc1)C1CCCCC1 (stereo not given) | inconclusive: -49.8%
O=C1C=C(c2ccccc2C(F)(F)F)C[C@@H](c2ccc3c(c2)OCO3)C1 | inconclusive: -51.3%
Fc1ccc(-[n+]2nc(Nc3ccccc3)sc2-c2c(Cl)cccc2Cl)cc1 | inconclusive: -50.5%
CCN(CC)S(=O)(=O)c1cccc(-c2nnc(SC(C)C(=O)NCCC3=CCCCC3)o2)c1 (stereo not given) | inconclusive: -47.1%
CCC(Sc1nc2c(sc3ccccc32)c(=O)n1CCc1ccccc1)C(=O)N(CC)CC (stereo not given) | inconclusive: -54%
CN1CCC(=NNC(=O)CN(c2ccc(Oc3ccccc3)cc2)S(C)(=O)=O)CC1 | inconclusive: -40.3%
Cc1ccc(C)c(C(=O)Cn2ncc(Cl)c(Cl)c2=O)c1 | active: -96.8%
CCc1nnc(NC(=O)c2ccc(S(=O)(=O)N(CC)Cc3ccccc3)cc2)o1 | inconclusive: -49.1%
CCCCCC(=O)N1c2ccccc2C(C)(c2ccccc2)CC1(C)C (stereo not given) | inconclusive: -43.2%
COc1ccc2[nH]cc(CCN=C(NC(=O)c3ccccc3C)Nc3nc(C)cc(C)n3)c2c1 | inconclusive: -45.5%
COc1ccc(NC(=O)c2cc(S(=O)(=O)N3CCCCC3)c[nH]2)c(OC)c1 | inconclusive: -50%
N#CCc1ccc(NS(=O)(=O)c2ccc(C3CCCCC3)cc2)cc1 | active: -64.2%
Cc1c(C(=O)N2CCC(C)CC2)c(S(=O)(=O)Nc2ccc(OC(F)(F)F)cc2)c(C)n1C | inconclusive: -53.7%
O=C(COC(=O)c1ccccc1C(=O)N1CCN(c2ccccc2)CC1)NCc1ccccc1 | active: -62.6%
CN(C)S(=O)(=O)N(CC(=O)NCCSc1ccccc1)c1ccccc1 | inactive: 4.03%
O=C(CCN1C(=O)/C(=C/c2ccc(F)cc2)SC1=S)NCCCn1ccnc1 | inconclusive: -54%
O=S(=O)(Oc1ccc(Cl)cc1)c1cccc2cccnc12 | inconclusive: -47.6%
O=C(Nc1cccc(F)c1)c1cc(S(=O)(=O)N2CCOCC2)cs1 | inconclusive: -41.7%
Cc1cc(Nc2cc(F)ccc2C)nc(-n2nc(C)cc2C)n1 | active: -80%

A draw from above in order of heavy-atom count, descending.
Compound | activity change, negative = inhibition
COc1cccc(Cn2c(=O)n(CC3CCC(C(=O)N4CCCCC4)CC3)c(=O)c3sccc32)c1 (stereo not given) | inconclusive: -48.3%
COc1ccc2[nH]cc(CCN=C(NC(=O)c3ccccc3C)Nc3nc(C)cc(C)n3)c2c1 | inconclusive: -45.5%
CCC(Sc1nc2c(sc3ccccc32)c(=O)n1CCc1ccccc1)C(=O)N(CC)CC (stereo not given) | inconclusive: -54%
Cc1c(C(=O)N2CCC(C)CC2)c(S(=O)(=O)Nc2ccc(OC(F)(F)F)cc2)c(C)n1C | inconclusive: -53.7%
COc1ccc(C(=O)NCc2nnc(SCC(=O)Nc3cc(Cl)ccc3OC)o2)cc1 | inactive: -29.3%
CN1CCC(=NNC(=O)CN(c2ccc(Oc3ccccc3)cc2)S(C)(=O)=O)CC1 | inconclusive: -40.3%
CCc1nnc(NC(=O)c2ccc(S(=O)(=O)N(CC)Cc3ccccc3)cc2)o1 | inconclusive: -49.1%
O=C(CCN1C(=O)/C(=C/c2ccc(F)cc2)SC1=S)NCCCn1ccnc1 | inconclusive: -54%
Cc1c(NC(=O)OCCSc2nc(N(C)C)nc(N(C)C)n2)sc(=S)n1C | inconclusive: -50.7%
CCCCCC(=O)N1c2ccccc2C(C)(c2ccccc2)CC1(C)C (stereo not given) | inconclusive: -43.2%
O=C(N=C1SC2CS(=O)(=O)CC2N1c1ccccc1)C1CCCCC1 (stereo not given) | inconclusive: -49.8%
O=C(Nc1cccc(F)c1)c1cc(S(=O)(=O)N2CCOCC2)cs1 | inconclusive: -41.7%
Cc1cc(Nc2cc(F)ccc2C)nc(-n2nc(C)cc2C)n1 | active: -80%
CC(C)(C)c1ccc(C(=O)NCCOc2ccccc2)cc1 | inconclusive: -51.8%
Fc1cccc(C2NCc3ccccc3-n3cccc32)c1 (stereo not given) | inconclusive: -43.3%
Cc1ccc(C)c(C(=O)Cn2ncc(Cl)c(Cl)c2=O)c1 | active: -96.8%

Additional records:

Compound | activity change, negative = inhibition
COc1ccc(Nc2nc3ccccc3n3cnnc23)cc1Cl | inactive: -19.5%
COc1ccc(Br)cc1CN(C)CC(=O)NCCc1ccc(S(N)(=O)=O)cc1 | inconclusive: -40.5%
COc1ccc(OC)c(C(=O)c2ccc(C(=O)Nc3cccc4ccccc34)cc2)c1 | inconclusive: -42.5%
C/C=C/c1ccc(OCC(O)CN2CCCCCCC2)c(OC)c1 (stereo not given) | inconclusive: -47.7%
CCOc1ccc(NC(=O)CN2C(=O)COc3ccc(S(=O)(=O)N4CCCCC4)cc32)cc1 | inactive: -13.8%
Cc1nn(-c2ccccc2)c2c1C(c1ccc([N+](=O)[O-])cc1)C(C#N)=C(N)O2 (stereo not given) | inactive: -14.9%
CCOc1ccccc1N1CCN(C(=O)CCCN2C(=O)c3cccc4cccc(c34)C2=O)CC1 | inconclusive: -41.1%
CC1CCCCN1C(=O)CSc1nnc(-c2c[nH]c3ccccc23)o1 (stereo not given) | inconclusive: -53.4%
COCCN1C=C(C(=O)OC)C(c2ccccc2Cl)C(C(=O)OC)=C1 | inactive: 5.83%
COc1cccc(-n2c(Cn3nc(C(F)F)cc3C(F)F)n[nH]c2=S)c1 | inactive: 21.7%
COc1ccc(NC(=O)CSc2nnc(-c3ccccc3F)n2C2CC2)cc1S(N)(=O)=O | inconclusive: -40.6%
COc1ccc(NS(=O)(=O)c2ccc(-c3ccccn3)s2)cc1 | inconclusive: -44.3%
Cc1ccc(NS(=O)(=O)c2ccc(NC(=O)N3CCCCC3)cc2)cc1 | inconclusive: -41.7%
CCCN1CCN(CCCNC(=O)Cn2nc(-c3ccc(Cl)cc3)ccc2=O)CC1 | inconclusive: -55.9%
Cc1cc2c(cc3c(SCc4ccccc4Cl)nnc(C)n32)o1 | inactive: 58.1%
CCN1C(=O)/C(=c2\sc3nc(=O)c(Cc4ccccc4)nn3c2=O)c2ccccc21 | inactive: 5.94%
Cc1ccc(C(=O)CC2(O)C(=O)N(C)c3ccccc32)o1 (stereo not given) | inconclusive: -42.8%
O=C(Nc1ccc(C(F)(F)F)cc1)C(Cc1ccccc1)n1cccc1 (stereo not given) | inconclusive: -42.5%
O=C(NCCCN1CCN(c2ccccc2F)CC1)c1ccc2nc(N3CCCCC3)sc2c1 | inactive: 94%
COc1cc(C2C(C(=O)c3ccco3)=C(O)C(=O)N2Cc2ccccc2)ccc1O (stereo not given) | inactive: 5.96%
O=C(Cn1c(-c2cccs2)cc2ccccc21)NCCCN1CCN(c2ccccc2F)CC1 | active: -68.3%
CCOC(=O)[C@H](CCc1ccccc1)N[C@@H](C)C(=O)N1C(C(=O)O)C[C@@H]2CCC[C@@H]21 (stereo not given in full) | inconclusive: -45.3%

Compound | activity change, negative = inhibition
CC(=O)NC1C(=O)Nc2c1cccc2C(F)(F)F (stereo not given) | inactive: 11.5%
Cc1ccc(NC(=O)c2ccc(OCc3c(C)noc3C)cc2)nc1 | inconclusive: -52.7%
C/C(=N\NC(=O)C1CCCC1)c1ccc(Cl)cc1Cl | inactive: 14.1%
COc1cccc(OC)c1C(=O)NC(=S)Nc1ccc(S(=O)(=O)Nc2nccs2)cc1 | inconclusive: -56.5%
CCCC(C)C(=O)Nc1nc(C)c(-c2csc(Nc3cc(OC)ccc3OC)n2)s1 (stereo not given) | inconclusive: -49.2%
CCN(CC)CCN1CCN(c2cnc(C)cn2)CC1 | inconclusive: -51.7%
NC(=O)c1ccccc1OCCOc1ccc(Br)cc1 | inconclusive: -45.4%
O=C(Nc1ccc(Cc2ccncc2)cc1)c1ccc(S(=O)(=O)N2CCCC2)cc1 | active: -87.1%
CCc1ccc(NC(=O)C(=O)NCCc2sc3nc(-c4ccc(OC)cc4)nn3c2C)cc1 | active: -64.3%
C/C(=N/N1CCN(c2ccccn2)CC1)c1cccc([N+](=O)[O-])c1 | inconclusive: -51.4%
Cc1ccc(-n2nnnc2SCC(=O)Nc2ccc(N3CCN(C)CC3)cc2)c(C)c1 | active: -98.8%
COC(=O)c1[nH]c2ccc(F)cc2c1NC(=O)CCN1CCN(Cc2ccc3c(c2)OCO3)CC1 | inactive: -15%
CCn1c(=NC(=O)CCS(=O)(=O)c2ccccc2)sc2cccc(OC)c21 | active: -73.7%
Cc1ccc(-c2ccc(S(=O)(=O)Nc3cccnc3)cc2)cc1 | inconclusive: -40.4%
COCCNS(=O)(=O)c1cccc2cccnc12 | inconclusive: -41.4%
O=C(CN1C(=O)C2CC=C(Cl)CC2C1=O)Nc1ccc(C(=O)O)cc1 (stereo not given) | inactive: -4.29%
O=C(Nc1cccc(NC(=O)c2ccccc2Cl)c1)c1cccs1 | active: -81.5%
COc1ccc(N2CCN(Cc3nnnn3C3CCCCC3)CC2)cc1 | inconclusive: -49%
COC(=O)[C@@]1(Cc2ccc(F)cc2)[C@H]2c3cc(C(=O)N4CCCC4)n(CC4CC4)c3C[C@H]2CN1C(=O)c1ccccc1 | inactive: -15.2%

— PubChem BioAssay AID1259415 (National Center for Advancing Translational Sciences (NCATS), 2018)
